Measurements from PubChem BioAssay AID504834 (National Center for Advancing Translational Sciences (NCATS), 2011).
Hit rate of the full screen: of about 320,000 compounds, about 22,000 (6.9%) were called active. The shares of active, inactive and inconclusive entries below differ from those in the screen. Calls come from the whole dose curve; as a rule, active = well fitted inhibition curve with a large enough effect; inconclusive = small, poorly fitted or top-dose-only effect, or another doubt; inactive = no such curve, though single readings can be large or run the other way. Potencies of inconclusive entries are doubtful fits and often do not repeat.

assay: Primary qHTS for delayed death inhibitors of the malarial parasite plastid, 96 hour incubation; settings: P. falciparum luciferase reporter growth; series mostly up to 28.7 µM
Method in brief: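 Luminescence readout: decreased luciferase signal marks inhibited growth of reporter-expressing P. falciparum in infected red cells (2% hematocrit, 0.05% parasitemia final), exposed to compound two generations (96 h, 37 C, 5% CO2).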
Potency is the fitted concentration of half-maximal effect.

| SMILES | Potency |
| --- | --- |
| COc1cccc(NC(=O)Nc2cccn(Cc3ccccc3)c2=O)c1 | inactive |
| O=C(CSCc1ccccc1Br)Nc1ccccc1 | inconclusive: 18.5 µM [inhibitor, single point] |
| O=C(NCCN1CCOCC1)C1CC(=O)N(c2ccc(F)c(Cl)c2)C1 (stereo unspecified) | inconclusive: 20.8 µM [inhibitor, partial curve, poor fit] |
| CC(=O)Nc1ccc(S(=O)(=O)NC(C)C(=O)OCCOc2ccc(F)cc2)cc1 (stereo unspecified) | inconclusive: 18.5 µM [inhibitor, single point] |
| O=C(CSc1nc(-c2ccccc2)cc(=O)[nH]1)NCc1ccc2c(c1)OCO2 | inactive |
| COc1ccc(C(=O)N(Cc2ccccc2)c2cccc(C)c2)c(OC)c1OC | inconclusive: 10.4 µM [inhibitor, single point] |
| NNC(=O)CCN(Cc1ccco1)S(=O)(=O)c1ccc(Cl)cc1 | inconclusive: 7.38 µM [inhibitor, partial curve, poor fit] |
| CN(C)CCNC(=O)c1ccccc1 | inactive |
| COc1ccc(-c2nnc(SCC(=O)NC3CC3)o2)c(OC)c1 | inconclusive: 18.5 µM [inhibitor, single point] |
| CC(C)N1CCN(CCCc2ccccc2)CC1CCO (stereo unspecified) | active: 13.1 µM |
| Cc1ccc(OCCCCN2CCCCC2)c(C)c1 | inconclusive: 4.15 µM [inhibitor, single point] |
| COCCNC(=O)CN1CCC(NC(=O)Nc2ccc(C(F)(F)F)cc2)CC1 | inactive |
| O=C1NCC(=O)N(Cc2ccccc2)/C1=C/c1ccccc1 | inactive |
| CCOC(=O)c1ccccc1NC(=O)CSc1nc(N)cc(N)n1 | active: 11.7 µM |
| COc1ccc(C2N=C(N)N=C(N)N2c2ccccc2OC)cc1OC (stereo unspecified) | inconclusive: 18.5 µM [inhibitor, single point] |
| CC(C)(C)c1ccc(NC(=O)N2CCCN(c3ccc([N+](=O)[O-])cn3)CC2)cc1 | inconclusive: 6.57 µM [inhibitor, partial curve, poor fit] |
| COCCN(CC(=O)NCC1CCCO1)C(=O)CCC(=O)Nc1cc(C)on1 (stereo unspecified) | active: 1.65 µM |
| CC1CCN(C(=S)c2ccc(O)cc2)CC1 | inconclusive: 0.0657 µM [inhibitor, full curve, poor fit] |
| CCCOC1(NC(=O)c2ccccc2)C(C)=CC(=O)C=C1C | active: 3.29 µM |
| Cc1c(CCCN)c2ccccc2n1Cc1ccccc1 | inconclusive: 4.15 µM [inhibitor, partial curve] |
| COc1ccc(NC(=O)COc2ccc(-n3cnnn3)cc2)cc1OC | inconclusive: 10.4 µM [inhibitor, partial curve, poor fit] |

Sorted by molar mass (high to low): part of the list above.

| SMILES | Potency |
| --- | --- |
| COCCN(CC(=O)NCC1CCCO1)C(=O)CCC(=O)Nc1cc(C)on1 (stereo unspecified) | active: 1.65 µM |
| CCOC(=O)c1ccccc1NC(=O)CSc1nc(N)cc(N)n1 | active: 11.7 µM |
| COc1ccc(-c2nnc(SCC(=O)NC3CC3)o2)c(OC)c1 | inconclusive: 18.5 µM [inhibitor, single point] |
